Assay: Detergent removal in downstream processing (chromatography scout column, HPLC-ELSD detection)
Conditions: for Detergent conc. in eluate after purification: LOD 2 μg/mL

C11-C15 secondary alcohol ethoxylate
Detergent conc. in eluate after purification (Anion Exchange (Fractogel EMD TMAE Hicap), 10 957 μg/g before purification): <LOD
Detergent conc. in eluate after purification (Cation Exchange (Eshmuno S), 9060 μg/g before purification): <LOD
Detergent conc. in eluate after purification (Protein A (Eshmuno Prot A), 9663 μg/g before purification): <LOD
detergent in the eluate and CIP fractions (protein A, cation and anion exchange): No traces of detergent were detected

Reference: patent US20260191191A1, “METHOD FOR INACTIVATING ENVELOPED VIRUSES” (Merck Patent GmbH, priority 2022, published 2026)
